{
  "source": "patent US12269902B2",
  "about": "“Peptide compounds and peptide conjugates for the treatment of cancer through receptor-mediated chemotherapy” (TRANSFERT PLUS, S.E.C., priority 2015, dated 2025)",
  "key": {"[1]": {"tested_on": "SKOV3 cancer cells", "experiment": "SKOV3 luciferase subcutaneous xenograft tumour model (Docetaxel, KBA-105)", "conditions": "equivalent dose of Docetaxel 10 mg/kg/week", "protocol": "Mice were implanted in the flank with SKOV3 cancer cells. Tumor growth was monitored by luminescence using the Near Infrared imaging system from Carestream.\nResults are expressed in terms of luminescence intensity as a function of post-treatment days.\nTo further evaluate the in vivo efficacy of the Katana-drug conjugate, SKOV3 cancer cells expressing luciferase were implanted in the mouse flank. […] Tumour imaging was performed on different days by injecting the luciferase substrate luciferin and by using the Xtreme imaging system from Carestream.\nLuminescence was then quantified and plotted as a function of days after implantation (FIG. 23).\nSKOV3 cancer cells (2.5×10^6 cells) expressing luciferase were implanted in the right flank of mice. Tumour growth was monitored using near infrared (NiR) imaging system from Carestream by injecting the luciferase substrate luciferin. […] Luminescence associated with tumour growth of SKOV3/Luc cancer cells was quantified as a function of post-treatment days with the instrument software."}, "[2]": {"tested_on": "SKOV3 ovarian cancer cells", "experiment": "Apoptosis of SKOV3 cells, Annexin V staining", "format": "cell-based", "conditions": "5 hours of exposure, increasing concentration"}, "[3]": {"tested_on": "SKMEL-28 melanoma cancer cells", "experiment": "Uptake of radiolabeled compounds in SK-MEL28 cells", "format": "cell-based", "conditions": "up to 2 hrs"}, "[4]": {"tested_on": "SKOV3 ovarian cancer cells", "experiment": "Uptake of radiolabeled compounds in SKOV3 cells", "format": "cell-based", "conditions": "up to 2 hrs"}, "[5]": {"tested_on": "cancer cells", "experiment": "Apoptosis by fluorescence microscopy (alpha-tubulin, DAPI)", "format": "cell-based", "conditions": "fluorescent microscopy", "protocol": "In FIG. 30, it was further evaluated whether the Curcumin conjugate (KBC106) induces cancer cell apoptosis. Cancer cells were incubated with KBC106 and curcumin. First column, uptake for both molecules can be monitored by fluorescent microscopy. Higher accumulation of fluorescence was detected for KBC1006 indicating a better cell internalization for the conjugate. Curcumin accumulation was barely visible in these cancer cells. […] In the third column, cell nucleus was labelled with the fluorescent dye DAPI."}, "[6]": {"tested_on": "SK-MEL-28 skin cancer cells", "experiment": "[3H]-Thymidine incorporation cell proliferation assay, SK-MEL-28", "format": "cell-based", "conditions": "KBC106 vs unconjugated Curcumin", "protocol": "(§1) The effect of the Docetaxel-Katana peptide conjugate on various cell line proliferations was evaluated and compared to unconjugated Docetaxel (Table 4). IC50 values obtained for the Docetaxel-Katana peptide conjugate were very similar to those of Docetaxel in the cancer cells tested.\n(§2) The phytochemical Curcumin, unconjugated and conjugated, was also tested on cancer cell proliferation (FIG. 28). Breast cancer cells (MDA-MB231) were incubated with increasing concentrations of KBC106 or curcumin. After 72 hrs, thymidine incorporation assay was performed to assess the anti-proliferative properties of both molecules. IC50 values were extracted from the anti-proliferative curves. […] Proliferation assay was also performed using different types of cancer cells (ovarian, breast, skin and colorectal cancer cells). IC50 values were calculated from the anti-proliferation curves. In all cases, the Curcumin conjugate (KBC106) had stronger anti-proliferative activity (9-100 fold) than unconjugated Curcumin, as shown in Table 6 below.\n(§3) Cancer cells were cultured in 96-well white plates (Perkin Elmer). They were synchronized for 24 hours in serum-deprived medium. […] After 24 hours, cell-associated tritium was quantified by counting on a plate reader (TopCount, Perkin Elmer). […]"}, "[7]": {"tested_on": "ES-2 ovarian cancer cells", "experiment": "Uptake of KBC106 and curcumin by fluorescent live imaging", "format": "cell-based"}, "[8]": {"tested_on": "ES-2 ovarian cancer cells", "experiment": "[3H]-Thymidine incorporation cell proliferation assay, ES-2", "format": "cell-based", "conditions": "KBC106 vs unconjugated Curcumin", "protocol": "as §1, §2, §3"}, "[9]": {"tested_on": "endometrial (MES) cancer cells", "experiment": "Endometrial (MES) subcutaneous tumors (KBC106)", "format": "in vivo, mice", "conditions": "At day 28, 60 mg/kg/twice a week"}, "[10]": {"tested_on": "A-375 skin cancer cells", "experiment": "[3H]-Thymidine incorporation cell proliferation assay, A-375", "format": "cell-based", "conditions": "KBC106 vs unconjugated Curcumin", "protocol": "as §1, §2, §3"}, "[11]": {"tested_on": "MDA-MB-231 breast cancer cells", "conditions": "MDA-MB231; KBC106 vs unconjugated Curcumin", "protocol": "Breast cancer cells (MDA-MB231) were incubated with increasing concentrations of KBC106 or curcumin. After 72 hrs, thymidine incorporation assay was performed to assess the anti-proliferative properties of both molecules. IC50 values were extracted from the anti-proliferative curves.\nas §2, with “curves.” for “curves. In all cases, the Curcumin conjugate (KBC106) had stronger anti-proliferative activity (9-100 fold) than unconjugated Curcumin, as shown in Table 6 below.”\nas §3"}, "[12]": {"tested_on": "HCC-1954 breast cancer cells", "format": "cell-based", "conditions": "KBC106 vs unconjugated Curcumin", "protocol": "as §2\n(§4) Cancer cells were cultured in 96-well white plates (Perkin Elmer). They were synchronized for 24 hours in serum-deprived medium. After incubation of cells with unconjugated drugs (docetaxel, cabazitaxel, doxorubicin) or with drug-Katana peptide conjugates for 2 or 3 days, all media was aspirated and cells were pulse-labeled for 4 hours at 37° C./[…]/5% CO2 with media containing 2.5 μCi/mL [methyl-3H] thymidine (Perkin Elmer). Cells were washed, fixed, and dried before addition of scintillation fluid (Microscint 0, Perkin Elmer). After 24 hours, cell-associated tritium was quantified by counting on a plate reader (TopCount, Perkin Elmer). Incorporated [3H] thymidine was plotted for each drug concentration."}, "[13]": {"tested_on": "HT-29 colorectal cancer cells", "format": "cell-based", "conditions": "KBC106 vs unconjugated Curcumin", "protocol": "as §2, §4"}, "[14]": {"tested_on": "HCC-1569 breast cancer cells", "format": "cell-based", "conditions": "KBC106 vs unconjugated Curcumin", "protocol": "as §2, §4"}},
  "note": "For at least one compound, name, drawing or mass did not settle the structure. Non-standard residues stand in square brackets, D forms with d. Residues, ends and D or L forms follow the SMILES beside them. *: point of attachment. X1 = CC(=O)O[C@@]12CO[C@@H]1C[C@H](O)[C@@]1(C)C(=O)[C@H](O)C3=C(C)[C@@H](OC(=O)[C@H](OC(=O)CCC(=O)*)[C@@H](NC(=O)OC(C)(C)C)c4ccccc4)C[C@@](O)([C@@H](OC(=O)c4ccccc4)[C@H]21)C3(C)C; X2 = COc1cc(/C=C/C(=O)CC(=O)/C=C/c2ccc(OC(=O)CC(C)(C)CC(=O)*)c(OC)c2)ccc1O; Nle = CCCC[C@H](N)C(=O)O",
  "data": [
    {"smiles": "CSCC[C@H](NC(=O)[C@H](CC(N)=O)NC(=O)[C@H](CCCNC(=N)N)NC(=O)[C@@H](NC(=O)CNC(=O)[C@H](C)NC(=O)[C@H](CCCCNC(=O)CCC(=O)O[C@@H](C(=O)O[C@H]1C[C@@]2(O)[C@@H](OC(=O)c3ccccc3)[C@@H]3[C@]4(OC(C)=O)CO[C@@H]4C[C@H](O)[C@@]3(C)C(=O)[C@H](O)C(=C1C)C2(C)C)[C@@H](NC(=O)OC(C)(C)C)c1ccccc1)NC(=O)[C@H](C)NC(=O)[C@H](CCCNC(=N)N)NC(=O)[C@@H](NC(=O)CNC(C)=O)C(C)C)C(C)C)C(=O)N[C@@H](Cc1ccccc1)C(=O)N[C@@H](CCCCNC(=O)CCC(=O)O[C@@H](C(=O)O[C@H]1C[C@@]2(O)[C@@H](OC(=O)c3ccccc3)[C@@H]3[C@]4(OC(C)=O)CO[C@@H]4C[C@H](O)[C@@]3(C)C(=O)[C@H](O)C(=C1C)C2(C)C)[C@@H](NC(=O)OC(C)(C)C)c1ccccc1)C(=O)N[C@@H](CO)C(=O)N[C@@H](CCC(=O)O)C(=O)N[C@@H](CO)C(=O)N[C@@H](Cc1ccc(O)cc1)C(=O)O", "note": "[KBA-105] (Ac-GVRAK(X1)AGVRNMFK(X1)SESY-OH; C-terminus assumed)", "values": [
      {"measurement": "tumour luminescence compared to Docetaxel treated mouse", "setting": "[1]", "value": "much lower luminescence"},
      {"measurement": "apoptosis", "setting": "[2]", "value": "induces apoptosis of these cancer cells after a relatively short incubation time"},
      {"measurement": "uptake compared to unconjugated Docetaxel", "setting": "[3]", "value": "faster and accumulates at higher concentrations than the unconjugated Docetaxel"},
      {"measurement": "uptake compared to unconjugated Docetaxel", "setting": "[4]", "value": "faster and accumulates at higher concentrations than the unconjugated Docetaxel"}
    ]},
    {"smiles": "CCCC[C@H](NC(=O)[C@H](CC(N)=O)NC(=O)[C@H](CCCNC(=N)N)NC(=O)[C@@H](NC(=O)CNC(=O)[C@H](C)NC(=O)[C@H](CCCCNC(=O)CC(C)(C)CC(=O)Oc1ccc(/C=C/C(=O)CC(=O)/C=C/c2ccc(O)c(OC)c2)cc1OC)NC(=O)[C@H](C)NC(=O)[C@H](CCCNC(=N)N)NC(=O)[C@@H](NC(=O)CNC(C)=O)C(C)C)C(C)C)C(=O)N[C@@H](Cc1ccccc1)C(=O)N[C@@H](CCCCNC(=O)CC(C)(C)CC(=O)Oc1ccc(/C=C/C(=O)CC(=O)/C=C/c2ccc(O)c(OC)c2)cc1OC)C(=O)N[C@@H](CO)C(=O)N[C@@H](CCC(=O)O)C(=O)N[C@@H](CO)C(=O)N[C@@H](Cc1ccc(O)cc1)C(=O)O", "note": "[KBC106, Acetyl-GVRAK(curcumin)AGVRN(Nle)FK(curcumin)SESY] (Ac-GVRAK(X2)AGVRN[Nle]FK(X2)SESY-OH; C-terminus assumed)", "values": [
      {"measurement": "induction of apoptosis (nucleus fragmentation, DAPI)", "setting": "[5]", "value": "clearly induced the nucleus fragmentations"},
      {"measurement": "Potency (x-fold)", "setting": "[6]", "value": 51, "unit": "x-fold"},
      {"measurement": "cellular internalization compared to unconjugated Curcumin", "setting": "[7]", "value": "increased cellular internalization"},
      {"measurement": "Potency (x-fold)", "setting": "[8]", "value": 10, "unit": "x-fold"},
      {"measurement": "Volume (mm^3)", "setting": "[9]", "value": 473, "unit": "mm^3"},
      {"measurement": "Inhibition (%)", "setting": "[9]; vs Control", "value": 62, "unit": "%"},
      {"measurement": "Potency (x-fold)", "setting": "[10]", "value": 64, "unit": "x-fold"},
      {"measurement": "Potency (x-fold)", "setting": "[11]", "value": 100, "unit": "x-fold"},
      {"measurement": "Potency (x-fold)", "setting": "[12]", "value": 9, "unit": "x-fold"},
      {"measurement": "Potency (x-fold)", "setting": "[13]", "value": 14, "unit": "x-fold"},
      {"measurement": "Potency (x-fold)", "setting": "[14]", "value": 15, "unit": "x-fold"}
    ]}
  ]
}
